# Source: article PMC9114114
# The chains behind the UniProt entries cited, without tags or fusion partners.
# UniProt Q9H1Y0: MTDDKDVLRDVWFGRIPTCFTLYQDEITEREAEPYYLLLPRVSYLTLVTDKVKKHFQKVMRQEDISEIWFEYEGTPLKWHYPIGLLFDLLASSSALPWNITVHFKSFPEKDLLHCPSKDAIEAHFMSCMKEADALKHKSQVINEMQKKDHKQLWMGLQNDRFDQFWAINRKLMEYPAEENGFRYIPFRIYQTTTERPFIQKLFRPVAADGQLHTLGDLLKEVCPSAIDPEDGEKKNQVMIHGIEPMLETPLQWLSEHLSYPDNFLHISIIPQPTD
# UniProt P78527: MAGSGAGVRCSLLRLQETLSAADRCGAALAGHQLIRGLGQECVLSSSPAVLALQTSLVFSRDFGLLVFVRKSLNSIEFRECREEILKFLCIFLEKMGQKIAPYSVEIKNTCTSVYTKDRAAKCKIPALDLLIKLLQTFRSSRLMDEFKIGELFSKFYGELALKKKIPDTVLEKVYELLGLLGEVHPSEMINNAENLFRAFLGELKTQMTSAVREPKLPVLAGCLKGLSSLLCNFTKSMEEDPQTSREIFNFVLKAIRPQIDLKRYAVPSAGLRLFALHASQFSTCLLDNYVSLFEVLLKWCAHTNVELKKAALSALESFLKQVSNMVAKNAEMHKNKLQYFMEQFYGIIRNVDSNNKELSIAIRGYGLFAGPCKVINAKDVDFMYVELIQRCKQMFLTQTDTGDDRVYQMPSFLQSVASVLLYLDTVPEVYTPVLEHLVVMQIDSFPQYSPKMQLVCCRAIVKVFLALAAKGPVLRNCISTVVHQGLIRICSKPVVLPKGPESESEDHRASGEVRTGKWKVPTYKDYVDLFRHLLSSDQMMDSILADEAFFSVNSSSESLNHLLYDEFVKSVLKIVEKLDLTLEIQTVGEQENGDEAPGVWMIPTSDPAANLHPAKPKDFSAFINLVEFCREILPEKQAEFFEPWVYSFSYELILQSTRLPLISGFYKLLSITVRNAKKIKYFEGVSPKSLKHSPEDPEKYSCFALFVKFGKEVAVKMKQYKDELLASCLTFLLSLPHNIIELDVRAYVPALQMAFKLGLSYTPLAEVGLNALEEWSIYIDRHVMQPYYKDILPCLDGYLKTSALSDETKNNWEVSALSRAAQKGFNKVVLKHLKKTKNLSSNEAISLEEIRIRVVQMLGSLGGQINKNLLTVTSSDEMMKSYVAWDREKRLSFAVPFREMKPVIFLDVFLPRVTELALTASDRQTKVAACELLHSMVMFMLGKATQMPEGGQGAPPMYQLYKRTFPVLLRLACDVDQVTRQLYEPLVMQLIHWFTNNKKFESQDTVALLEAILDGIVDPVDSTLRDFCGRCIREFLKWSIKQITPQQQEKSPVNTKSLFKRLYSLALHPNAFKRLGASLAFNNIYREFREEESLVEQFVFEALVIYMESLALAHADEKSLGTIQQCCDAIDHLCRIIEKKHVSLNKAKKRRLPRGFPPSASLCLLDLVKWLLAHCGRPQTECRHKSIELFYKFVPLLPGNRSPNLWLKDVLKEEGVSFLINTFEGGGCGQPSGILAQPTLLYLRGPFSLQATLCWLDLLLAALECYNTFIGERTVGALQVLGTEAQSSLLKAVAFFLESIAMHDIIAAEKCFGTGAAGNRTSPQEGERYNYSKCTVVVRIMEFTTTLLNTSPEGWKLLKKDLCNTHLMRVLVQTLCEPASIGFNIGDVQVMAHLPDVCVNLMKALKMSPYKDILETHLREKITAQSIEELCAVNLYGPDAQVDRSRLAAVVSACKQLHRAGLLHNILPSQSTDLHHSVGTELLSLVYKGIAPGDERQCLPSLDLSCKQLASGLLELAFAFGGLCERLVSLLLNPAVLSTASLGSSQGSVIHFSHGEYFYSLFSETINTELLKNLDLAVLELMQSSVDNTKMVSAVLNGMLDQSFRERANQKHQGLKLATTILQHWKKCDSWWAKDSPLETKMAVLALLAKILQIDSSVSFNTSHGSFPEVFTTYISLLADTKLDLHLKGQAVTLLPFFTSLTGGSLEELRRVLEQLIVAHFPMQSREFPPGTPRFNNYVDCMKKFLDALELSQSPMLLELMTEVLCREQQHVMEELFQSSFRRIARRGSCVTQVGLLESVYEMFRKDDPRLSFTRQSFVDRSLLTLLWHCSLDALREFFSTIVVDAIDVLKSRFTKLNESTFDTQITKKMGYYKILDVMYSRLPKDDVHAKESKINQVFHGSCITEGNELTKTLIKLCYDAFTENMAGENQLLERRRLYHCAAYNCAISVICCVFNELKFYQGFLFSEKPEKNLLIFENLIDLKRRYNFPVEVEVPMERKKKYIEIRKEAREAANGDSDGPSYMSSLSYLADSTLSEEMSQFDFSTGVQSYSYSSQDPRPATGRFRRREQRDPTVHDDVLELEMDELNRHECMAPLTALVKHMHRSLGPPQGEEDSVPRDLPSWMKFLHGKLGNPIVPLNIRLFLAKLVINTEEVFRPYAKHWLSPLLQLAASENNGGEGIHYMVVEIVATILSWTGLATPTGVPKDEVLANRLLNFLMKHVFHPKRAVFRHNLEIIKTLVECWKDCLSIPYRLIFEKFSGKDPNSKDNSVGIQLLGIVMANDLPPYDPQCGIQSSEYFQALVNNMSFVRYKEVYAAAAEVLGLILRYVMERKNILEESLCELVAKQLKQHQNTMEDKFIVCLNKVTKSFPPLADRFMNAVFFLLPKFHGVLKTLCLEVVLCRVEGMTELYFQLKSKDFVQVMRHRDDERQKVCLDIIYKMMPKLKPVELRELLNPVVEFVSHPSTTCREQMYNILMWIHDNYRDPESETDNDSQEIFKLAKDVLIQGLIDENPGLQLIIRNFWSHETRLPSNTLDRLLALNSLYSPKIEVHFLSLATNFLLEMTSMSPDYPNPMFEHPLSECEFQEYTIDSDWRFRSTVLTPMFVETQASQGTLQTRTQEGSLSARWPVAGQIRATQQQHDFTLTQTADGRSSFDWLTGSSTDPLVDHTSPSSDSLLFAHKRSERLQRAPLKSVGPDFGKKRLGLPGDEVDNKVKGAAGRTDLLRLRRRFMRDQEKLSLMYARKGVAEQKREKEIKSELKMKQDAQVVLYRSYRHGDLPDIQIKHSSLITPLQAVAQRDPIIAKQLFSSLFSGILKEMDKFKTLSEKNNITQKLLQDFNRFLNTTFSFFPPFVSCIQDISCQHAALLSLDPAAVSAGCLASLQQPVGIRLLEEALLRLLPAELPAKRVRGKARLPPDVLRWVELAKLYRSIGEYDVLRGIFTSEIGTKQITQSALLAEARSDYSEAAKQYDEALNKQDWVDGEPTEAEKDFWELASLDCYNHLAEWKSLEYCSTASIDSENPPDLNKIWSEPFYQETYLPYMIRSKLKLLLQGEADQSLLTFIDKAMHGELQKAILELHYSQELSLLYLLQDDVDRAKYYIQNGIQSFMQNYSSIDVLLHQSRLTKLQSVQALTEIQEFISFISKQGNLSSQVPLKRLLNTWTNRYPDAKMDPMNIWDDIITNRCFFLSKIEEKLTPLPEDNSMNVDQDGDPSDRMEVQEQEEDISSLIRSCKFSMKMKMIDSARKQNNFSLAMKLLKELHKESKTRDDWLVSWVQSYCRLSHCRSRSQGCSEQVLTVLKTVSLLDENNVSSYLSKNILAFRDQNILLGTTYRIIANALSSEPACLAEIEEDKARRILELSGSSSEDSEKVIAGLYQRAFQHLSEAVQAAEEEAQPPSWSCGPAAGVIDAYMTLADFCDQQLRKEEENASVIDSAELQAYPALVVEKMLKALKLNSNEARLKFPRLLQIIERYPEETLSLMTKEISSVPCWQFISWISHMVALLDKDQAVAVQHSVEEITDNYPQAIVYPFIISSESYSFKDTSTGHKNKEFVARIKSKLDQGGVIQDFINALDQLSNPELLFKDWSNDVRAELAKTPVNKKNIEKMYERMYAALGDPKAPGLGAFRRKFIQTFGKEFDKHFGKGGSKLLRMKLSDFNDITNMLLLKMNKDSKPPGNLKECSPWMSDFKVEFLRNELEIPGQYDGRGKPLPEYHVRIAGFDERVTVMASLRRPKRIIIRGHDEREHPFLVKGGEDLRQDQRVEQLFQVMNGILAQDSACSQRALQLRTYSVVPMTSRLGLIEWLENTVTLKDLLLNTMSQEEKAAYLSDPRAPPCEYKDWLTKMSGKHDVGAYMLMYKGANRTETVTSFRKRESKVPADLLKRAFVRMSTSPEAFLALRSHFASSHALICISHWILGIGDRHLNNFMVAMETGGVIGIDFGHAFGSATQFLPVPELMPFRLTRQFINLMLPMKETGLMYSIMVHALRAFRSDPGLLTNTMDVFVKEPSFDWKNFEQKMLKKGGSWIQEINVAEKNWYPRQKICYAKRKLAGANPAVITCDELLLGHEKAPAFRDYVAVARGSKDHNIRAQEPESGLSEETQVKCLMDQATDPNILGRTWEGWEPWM
# UniProt P12956: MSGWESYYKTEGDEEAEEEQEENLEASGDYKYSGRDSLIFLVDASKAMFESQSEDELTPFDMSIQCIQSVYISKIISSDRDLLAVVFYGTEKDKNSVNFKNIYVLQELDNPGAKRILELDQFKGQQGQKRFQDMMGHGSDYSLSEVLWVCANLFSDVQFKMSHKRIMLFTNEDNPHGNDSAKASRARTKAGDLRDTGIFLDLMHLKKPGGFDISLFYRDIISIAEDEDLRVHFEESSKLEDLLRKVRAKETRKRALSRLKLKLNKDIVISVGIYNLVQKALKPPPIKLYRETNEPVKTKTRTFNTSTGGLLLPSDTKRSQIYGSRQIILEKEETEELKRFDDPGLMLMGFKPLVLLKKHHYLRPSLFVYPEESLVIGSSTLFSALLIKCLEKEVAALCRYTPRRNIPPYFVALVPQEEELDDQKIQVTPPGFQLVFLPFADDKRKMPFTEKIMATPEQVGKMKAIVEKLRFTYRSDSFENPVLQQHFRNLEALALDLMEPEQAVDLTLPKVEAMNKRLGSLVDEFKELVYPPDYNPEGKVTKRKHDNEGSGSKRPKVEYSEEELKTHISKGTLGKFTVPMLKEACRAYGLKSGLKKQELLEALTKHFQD
# Target: Flag-tagged ATG5 (human) (UniProt Q9H1Y0)
# Test: affinity purification with mass spectrometry; Tri-SILAC labelling and LC-MS/MS; Flag-tagged ATG5 as bait, extracts of HEK293T and HeLa cells
row,binding,Substance
1,binds,DNA-dependent protein kinase catalytic subunit (from UniProt P78527 1-4128)
2,binds,endogenous Ku70 (from UniProt P12956 1-609)

# No constants are given. Whether binding was seen depends on the method and setting. Binding seen in cells or lysates may run through a third protein. These calls come from enrichment with a bait or labelling near it, and not all partners need be listed.
